From the supplement of paper PMC11732987, “Enantioselective OTUD7B fragment discovery through chemoproteomics screening and high-throughput optimisation” (Communications Chemistry, 2025)
The list shows a part of the results. The data scatter; read single values as rough.

Amino acid sequences for entries named in this document (tags omitted). A change or cut given only in a name is not applied to a line headed by its entry. Residues count along the entry.
UniProt Q9UHR6: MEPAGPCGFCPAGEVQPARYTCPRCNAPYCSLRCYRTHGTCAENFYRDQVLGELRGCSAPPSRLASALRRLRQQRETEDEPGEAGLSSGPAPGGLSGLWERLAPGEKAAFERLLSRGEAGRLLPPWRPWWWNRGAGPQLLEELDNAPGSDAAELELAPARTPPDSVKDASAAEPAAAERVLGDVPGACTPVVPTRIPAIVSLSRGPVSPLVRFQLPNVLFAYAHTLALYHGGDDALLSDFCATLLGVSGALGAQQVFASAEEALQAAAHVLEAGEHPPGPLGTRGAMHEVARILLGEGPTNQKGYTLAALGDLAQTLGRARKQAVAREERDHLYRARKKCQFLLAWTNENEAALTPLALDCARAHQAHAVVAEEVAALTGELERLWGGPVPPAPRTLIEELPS
UniProt A7E2V4: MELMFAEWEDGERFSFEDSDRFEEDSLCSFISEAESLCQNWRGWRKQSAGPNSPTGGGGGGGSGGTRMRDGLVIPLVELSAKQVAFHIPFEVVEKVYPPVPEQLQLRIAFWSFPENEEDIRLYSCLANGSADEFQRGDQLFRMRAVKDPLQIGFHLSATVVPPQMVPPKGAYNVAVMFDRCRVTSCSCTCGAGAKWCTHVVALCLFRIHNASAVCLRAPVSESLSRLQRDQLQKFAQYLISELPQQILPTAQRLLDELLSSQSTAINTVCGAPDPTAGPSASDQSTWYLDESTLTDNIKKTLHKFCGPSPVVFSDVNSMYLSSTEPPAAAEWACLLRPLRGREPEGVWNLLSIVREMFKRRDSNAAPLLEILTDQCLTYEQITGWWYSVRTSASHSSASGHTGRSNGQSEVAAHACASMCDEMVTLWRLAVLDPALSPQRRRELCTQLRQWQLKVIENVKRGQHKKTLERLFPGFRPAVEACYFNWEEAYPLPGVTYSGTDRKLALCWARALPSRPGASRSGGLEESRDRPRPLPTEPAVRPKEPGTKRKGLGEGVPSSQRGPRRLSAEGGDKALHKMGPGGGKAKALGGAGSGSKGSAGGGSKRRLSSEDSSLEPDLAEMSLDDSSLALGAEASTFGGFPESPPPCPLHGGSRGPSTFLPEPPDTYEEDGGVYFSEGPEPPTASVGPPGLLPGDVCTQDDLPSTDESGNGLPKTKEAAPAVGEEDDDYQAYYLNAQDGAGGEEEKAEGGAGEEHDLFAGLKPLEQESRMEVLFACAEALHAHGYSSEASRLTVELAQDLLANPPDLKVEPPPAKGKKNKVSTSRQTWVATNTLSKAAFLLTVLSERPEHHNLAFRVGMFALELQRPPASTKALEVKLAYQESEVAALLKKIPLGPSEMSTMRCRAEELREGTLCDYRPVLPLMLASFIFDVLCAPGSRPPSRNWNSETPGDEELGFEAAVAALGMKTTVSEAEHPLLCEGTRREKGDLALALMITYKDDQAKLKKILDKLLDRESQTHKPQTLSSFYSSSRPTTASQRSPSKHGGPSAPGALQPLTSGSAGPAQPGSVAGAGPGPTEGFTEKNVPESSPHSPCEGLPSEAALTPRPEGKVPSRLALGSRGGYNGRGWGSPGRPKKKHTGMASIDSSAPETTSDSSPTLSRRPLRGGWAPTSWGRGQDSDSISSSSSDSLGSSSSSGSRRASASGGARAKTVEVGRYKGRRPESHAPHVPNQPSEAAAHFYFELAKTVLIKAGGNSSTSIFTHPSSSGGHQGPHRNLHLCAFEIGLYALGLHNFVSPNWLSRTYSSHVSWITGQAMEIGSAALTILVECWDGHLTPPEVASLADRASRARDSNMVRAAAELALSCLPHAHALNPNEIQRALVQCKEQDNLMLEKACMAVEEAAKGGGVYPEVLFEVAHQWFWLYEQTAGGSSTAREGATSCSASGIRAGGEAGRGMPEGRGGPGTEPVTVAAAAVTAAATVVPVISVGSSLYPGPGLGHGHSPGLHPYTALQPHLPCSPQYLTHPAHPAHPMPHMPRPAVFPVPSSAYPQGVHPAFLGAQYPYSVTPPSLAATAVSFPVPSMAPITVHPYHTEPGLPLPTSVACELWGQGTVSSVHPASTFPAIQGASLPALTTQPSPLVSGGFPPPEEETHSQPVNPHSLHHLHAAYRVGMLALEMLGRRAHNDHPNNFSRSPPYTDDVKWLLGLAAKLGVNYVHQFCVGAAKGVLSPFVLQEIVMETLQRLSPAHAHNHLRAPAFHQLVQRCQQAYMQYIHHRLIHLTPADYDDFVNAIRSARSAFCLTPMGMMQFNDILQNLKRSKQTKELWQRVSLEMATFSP
UniProt Q6FIF0: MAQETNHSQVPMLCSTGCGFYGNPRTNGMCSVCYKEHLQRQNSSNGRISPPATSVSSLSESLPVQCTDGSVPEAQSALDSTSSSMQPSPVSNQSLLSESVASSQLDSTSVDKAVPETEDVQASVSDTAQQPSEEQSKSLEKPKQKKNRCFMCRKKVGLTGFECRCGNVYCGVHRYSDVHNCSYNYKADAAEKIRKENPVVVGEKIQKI
UniProt O75362, 416-463: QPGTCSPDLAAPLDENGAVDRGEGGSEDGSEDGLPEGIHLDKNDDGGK
UniProt Q9NP64: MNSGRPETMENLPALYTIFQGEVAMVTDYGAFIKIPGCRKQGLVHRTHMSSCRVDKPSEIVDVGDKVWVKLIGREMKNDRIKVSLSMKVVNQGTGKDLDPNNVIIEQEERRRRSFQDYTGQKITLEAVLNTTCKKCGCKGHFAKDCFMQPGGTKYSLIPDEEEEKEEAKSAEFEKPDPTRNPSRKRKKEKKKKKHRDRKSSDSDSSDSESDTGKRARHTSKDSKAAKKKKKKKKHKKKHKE
UniProt Q9C0G0, 1228-1247: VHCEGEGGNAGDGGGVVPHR
UniProt Q9NWK9: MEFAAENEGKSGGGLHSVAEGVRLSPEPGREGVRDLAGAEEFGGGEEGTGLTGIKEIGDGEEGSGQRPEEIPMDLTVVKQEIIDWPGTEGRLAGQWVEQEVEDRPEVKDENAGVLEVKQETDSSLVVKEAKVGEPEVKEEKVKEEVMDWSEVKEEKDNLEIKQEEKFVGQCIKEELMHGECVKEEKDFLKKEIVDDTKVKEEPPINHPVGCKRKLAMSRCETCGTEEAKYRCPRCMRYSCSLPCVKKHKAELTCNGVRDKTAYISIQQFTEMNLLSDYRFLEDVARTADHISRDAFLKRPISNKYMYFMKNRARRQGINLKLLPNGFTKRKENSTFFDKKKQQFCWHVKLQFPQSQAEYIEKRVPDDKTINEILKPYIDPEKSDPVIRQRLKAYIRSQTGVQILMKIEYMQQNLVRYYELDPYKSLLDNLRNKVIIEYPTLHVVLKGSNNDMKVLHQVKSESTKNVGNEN
UniProt Q6NUN9: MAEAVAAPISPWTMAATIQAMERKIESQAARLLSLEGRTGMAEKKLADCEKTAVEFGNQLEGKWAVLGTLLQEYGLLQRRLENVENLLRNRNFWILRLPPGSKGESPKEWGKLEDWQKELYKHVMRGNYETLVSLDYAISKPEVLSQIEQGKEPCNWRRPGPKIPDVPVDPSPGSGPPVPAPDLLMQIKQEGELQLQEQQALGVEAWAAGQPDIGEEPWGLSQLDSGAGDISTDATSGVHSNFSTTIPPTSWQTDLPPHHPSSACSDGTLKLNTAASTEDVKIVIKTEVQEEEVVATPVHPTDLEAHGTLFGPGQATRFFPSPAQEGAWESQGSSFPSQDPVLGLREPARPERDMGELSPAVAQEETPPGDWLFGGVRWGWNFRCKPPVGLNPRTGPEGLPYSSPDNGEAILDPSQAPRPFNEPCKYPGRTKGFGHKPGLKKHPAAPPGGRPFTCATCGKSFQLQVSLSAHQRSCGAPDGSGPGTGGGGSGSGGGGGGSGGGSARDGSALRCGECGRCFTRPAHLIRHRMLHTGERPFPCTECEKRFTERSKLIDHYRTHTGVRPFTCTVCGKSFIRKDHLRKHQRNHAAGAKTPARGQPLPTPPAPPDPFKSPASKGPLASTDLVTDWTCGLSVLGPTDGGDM
UniProt Q8NDX6: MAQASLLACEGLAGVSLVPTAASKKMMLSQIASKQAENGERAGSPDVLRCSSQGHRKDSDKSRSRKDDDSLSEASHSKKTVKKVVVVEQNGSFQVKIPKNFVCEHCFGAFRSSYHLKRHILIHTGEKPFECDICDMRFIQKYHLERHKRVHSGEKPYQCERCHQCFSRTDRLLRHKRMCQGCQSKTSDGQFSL
UniProt Q9NTW7: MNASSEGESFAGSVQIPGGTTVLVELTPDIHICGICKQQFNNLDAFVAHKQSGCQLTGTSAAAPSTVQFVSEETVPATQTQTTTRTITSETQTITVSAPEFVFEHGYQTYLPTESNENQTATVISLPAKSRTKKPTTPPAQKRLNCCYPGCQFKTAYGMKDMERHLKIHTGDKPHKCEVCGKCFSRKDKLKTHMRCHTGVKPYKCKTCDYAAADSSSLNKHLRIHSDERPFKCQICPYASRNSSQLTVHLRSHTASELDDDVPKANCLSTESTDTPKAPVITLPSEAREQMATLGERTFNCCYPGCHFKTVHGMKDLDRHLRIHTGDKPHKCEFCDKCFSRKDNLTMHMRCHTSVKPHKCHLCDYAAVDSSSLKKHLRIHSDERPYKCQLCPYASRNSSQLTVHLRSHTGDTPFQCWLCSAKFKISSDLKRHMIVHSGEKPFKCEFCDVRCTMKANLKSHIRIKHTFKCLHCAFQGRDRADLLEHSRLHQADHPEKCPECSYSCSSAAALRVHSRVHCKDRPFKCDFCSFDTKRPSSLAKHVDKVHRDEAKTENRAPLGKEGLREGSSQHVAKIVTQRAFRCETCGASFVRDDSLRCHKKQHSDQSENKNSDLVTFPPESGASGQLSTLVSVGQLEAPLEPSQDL
UniProt Q969W1: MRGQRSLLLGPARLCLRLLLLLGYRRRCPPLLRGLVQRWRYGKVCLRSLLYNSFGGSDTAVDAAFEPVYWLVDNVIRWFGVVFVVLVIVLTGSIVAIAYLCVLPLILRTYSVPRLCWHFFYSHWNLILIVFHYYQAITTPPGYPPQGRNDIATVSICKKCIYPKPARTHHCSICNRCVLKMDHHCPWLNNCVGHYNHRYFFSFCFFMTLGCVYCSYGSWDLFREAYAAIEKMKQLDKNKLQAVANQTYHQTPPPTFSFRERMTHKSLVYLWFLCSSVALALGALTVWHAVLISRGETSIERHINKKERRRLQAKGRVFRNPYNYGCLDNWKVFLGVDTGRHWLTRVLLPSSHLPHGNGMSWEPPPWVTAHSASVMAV
UniProt Q86UK7, 404-439: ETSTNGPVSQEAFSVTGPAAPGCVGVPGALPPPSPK
UniProt Q6NZY4: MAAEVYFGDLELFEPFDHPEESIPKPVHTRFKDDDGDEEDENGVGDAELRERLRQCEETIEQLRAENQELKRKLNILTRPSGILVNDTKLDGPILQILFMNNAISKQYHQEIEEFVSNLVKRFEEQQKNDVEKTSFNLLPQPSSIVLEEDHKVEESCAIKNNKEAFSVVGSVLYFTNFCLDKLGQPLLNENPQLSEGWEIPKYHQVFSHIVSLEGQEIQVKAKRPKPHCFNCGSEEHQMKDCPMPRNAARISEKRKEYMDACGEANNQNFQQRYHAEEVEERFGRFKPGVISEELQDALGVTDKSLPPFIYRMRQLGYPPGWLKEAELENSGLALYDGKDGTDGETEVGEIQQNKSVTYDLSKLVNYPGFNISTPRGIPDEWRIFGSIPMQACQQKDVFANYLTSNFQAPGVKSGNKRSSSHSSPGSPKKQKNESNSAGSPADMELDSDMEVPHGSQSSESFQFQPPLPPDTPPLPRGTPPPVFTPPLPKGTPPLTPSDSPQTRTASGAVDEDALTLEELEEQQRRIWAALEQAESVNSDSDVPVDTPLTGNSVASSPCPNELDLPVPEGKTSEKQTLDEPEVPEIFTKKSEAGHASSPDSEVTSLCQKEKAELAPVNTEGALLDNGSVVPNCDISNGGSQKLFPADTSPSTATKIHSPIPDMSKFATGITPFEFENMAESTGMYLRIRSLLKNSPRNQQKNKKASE
UniProt P52739: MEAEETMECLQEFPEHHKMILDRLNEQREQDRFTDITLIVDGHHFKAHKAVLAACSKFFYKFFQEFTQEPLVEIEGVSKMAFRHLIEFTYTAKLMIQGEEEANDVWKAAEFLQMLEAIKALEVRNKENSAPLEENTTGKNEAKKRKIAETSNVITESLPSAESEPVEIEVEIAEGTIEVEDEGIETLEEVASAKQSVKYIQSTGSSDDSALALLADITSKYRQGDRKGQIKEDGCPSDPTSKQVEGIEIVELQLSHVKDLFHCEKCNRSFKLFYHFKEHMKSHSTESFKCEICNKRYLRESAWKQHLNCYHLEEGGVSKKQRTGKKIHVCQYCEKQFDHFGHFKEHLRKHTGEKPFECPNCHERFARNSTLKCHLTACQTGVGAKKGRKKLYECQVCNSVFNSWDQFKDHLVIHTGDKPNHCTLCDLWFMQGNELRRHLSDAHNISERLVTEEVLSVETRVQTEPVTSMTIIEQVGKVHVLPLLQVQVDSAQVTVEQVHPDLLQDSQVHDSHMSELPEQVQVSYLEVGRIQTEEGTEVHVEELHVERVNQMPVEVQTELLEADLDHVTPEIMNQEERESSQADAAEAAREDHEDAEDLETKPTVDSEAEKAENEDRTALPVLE

Tests used:
[1] = compound: ClCC(=O)N[C@@H]1CCCc2ccccc12; assay: log2 mean competition ratio of IA-DTB cysteine labelling (DMSO/compound) (log2 ratio); higher = stronger cysteine engagement by compound; settings: treatment time: 4 h, cell line lysate: HEK293T
Method: (§1)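 IA-DTB competitive cysteine chemoproteomics in HEK293T RIPA lysate. Lysates were treated with compound 29 or 30 at 50 or 200 µM for 4 h, then IA-DTB (500 µM, 1 h), trypsin-digested, NeutrAvidin-enriched and analysed by diaPASEF. Competition ratio = intensity DMSO / intensity compound (n=4 treated, n=64 DMSO); binding: mean log2 CR ≥ 1 and p ≤ 0.05 plus QC filters. Target is the cysteine site.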

[2] = compound: ClCC(=O)N[C@H]1CCCc2ccccc12; assay: as above; settings: treatment time: 4 h, cell line lysate: HEK293T
Method: as §1

Row | Target | log2 mean competition ratio ([1]; 50 µM) | log2 mean competition ratio ([1]; 200 µM) | log2 mean competition ratio ([2]; 50 µM) | log2 mean competition ratio ([2]; 200 µM)
1 | ZNHIT2 C188 (UniProt Q9UHR6) | -0.247 | -0.105 | -0.0402 | -0.0729
2 | ZSWIM8 C1441 (UniProt A7E2V4) | -0.00833 | 0.14 | 0.0178 | 0.0208
3 | ZC3HAV1L C15 (UniProt Q96H79) | 0.305 | -0.394 | 0.224 | -0.527
4 | ZW10 C346 (UniProt O43264) | 0.35 | 0.0278 | 0.539 | 0.0131
5 | ZFPL1 C56 (UniProt O95159) | -0.0983 | -0.000818 | 0.235 | 0.0652
6 | ZNF654 C927, A0A1B0GWA0 | -0.00617 | -0.00864 | -0.151 | 0.161
7 | ZMYM6 C454 | 0.277 | 0.309 | 0.00796 | 0.145
8 | ZZEF1 C69 (UniProt O43149) | -0.111 | -0.0398 | -0.0444 | -0.0339
9 | ZNF14 C80 | 0.045 | -0.127 | -0.0648 | -0.437
10 | ZNF646 C150 (UniProt O15015) | -0.27 | -0.0688 | -0.354 | -0.068
11 | ZNF507 C86 (UniProt Q8TCN5) | -0.184 | 0.271 | -0.409 | -0.208
12 | ZFYVE21 C88 (UniProt Q9BQ24) | 0.0618 | 0.28 | -0.322 | 0.219
13 | ZFAND6 C163 (UniProt Q6FIF0) | 0.0133 | 0.0225 | 0.0296 | 0.00374
14 | ZMYM4 C1368 (UniProt Q5VZL5) | -0.009 | 0.207 | -0.663 | 0.181
15 | ZNF609 C1290 (UniProt O15014) | -0.0199 | 0.0939 | 0.161 | 0.165
16 | ZNF324 C198 (UniProt O75467) | -0.318 | 0.165 | -0.211 | 0.116
17 | ZNF217 C420 (UniProt O75362) | -0.548 | -0.396 | -0.373 | -0.367
18 | ZCCHC17 C52 (UniProt Q9NP64) | 0.223 | 0.302 | 0.0977 | 0.0127
19 | ZNF407 C1394 (UniProt Q9C0G0) | -0.363 | -0.191 | -0.0382 | -0.154

Row | Target | log2 mean competition ratio ([1]; 50 µM) | log2 mean competition ratio ([1]; 200 µM) | log2 mean competition ratio ([2]; 50 µM) | log2 mean competition ratio ([2]; 200 µM)
20 | ZEB1 C82 (UniProt P37275) | 0.0948 | 0.331 | 0.0796 | 0.062
21 | ZW10 C39 (UniProt O43264) | -0.245 | 0.171 | -0.76 | -0.215
22 | ZNHIT6 C254 (UniProt Q9NWK9) | -0.139 | -0.405 | -0.00959 | -0.25
23 | ZSCAN26 C196 (UniProt Q16670) | -0.107 | 0.053 | -0.0884 | 0.164
24 | ZNF35 C129 | -0.0983 | 0.118 | -0.468 | 0.25
25 | ZMYM1 C159 (UniProt Q5SVZ6) | -0.033 | 0.00115 | 0.0436 | -0.00755
26 | ZNF432 C150 | -0.166 | 0.0622 | -0.206 | -0.0858
27 | ZMYM4 C715 (UniProt Q5VZL5) | -0.0694 | -0.0501 | -0.158 | -0.13
28 | ZNF623 C97 | -0.181 | 0.52 | -0.457 | 0.0427
29 | ZNF709 C403(C459)(C515) | 0.846 | 1.68 | 0.392 | 1.34
30 | ZNF592 C1221 (UniProt Q92610) | -0.387 | 0.144 | -0.127 | 0.237
31 | ZNF512B C353 (UniProt Q96KM6) | -0.00924 | -0.186 | 0.131 | 0.16
32 | ZDHHC4 C337 (UniProt Q9NPG8) | 0.264 | 0.208 | 0.332 | 0.217
33 | ZNF746 C385 (UniProt Q6NUN9) | 0.23 | -0.1 | -0.0987 | -0.107
34 | ZNF740 C159 (UniProt Q8NDX6) | 0.339 | -0.145 | 0.379 | -0.787
35 | ZFP64 C267 (UniProt Q9NTW7) | -0.0101 | 0.0223 | -0.337 | -0.134
36 | ZNF142 C1049 | 0.125 | 0.287 | -0.103 | 0.128
37 | ZDHHC5 C245 (UniProt Q9C0B5) | 0.0247 | 0.186 | 0.116 | 0.151
38 | ZFR C844 (UniProt Q96KR1) | -0.0193 | -0.182 | -0.125 | 0.178

An excerpt from above, limited to log2 mean competition ratio ([2]; 50 µM), log2 mean competition ratio ([2]; 200 µM) and log2 mean competition ratio ([1]; 200 µM):
Row	Target	log2 mean competition ratio ([2]; 50 µM)	log2 mean competition ratio ([2]; 200 µM)	log2 mean competition ratio ([1]; 200 µM)
23	ZSCAN26 C196 (UniProt Q16670)	-0.0884	0.164	0.053
30	ZNF592 C1221 (UniProt Q92610)	-0.127	0.237	0.144

The listing continues.

Row | Target | log2 mean competition ratio ([1]; 50 µM) | log2 mean competition ratio ([1]; 200 µM) | log2 mean competition ratio ([2]; 50 µM) | log2 mean competition ratio ([2]; 200 µM)
39 | ZGPAT C180 (UniProt Q8N5A5) | 0.312 | 0.128 | -0.265 | 0.257
40 | ZDHHC18 C375 (UniProt Q9NUE0) | -0.254 | 0.298 | -0.0859 | 0.291
41 | ZFAND3 C32 (UniProt Q9H8U3) | -0.00212 | -0.426 | 0.0972 | 0.0563
42 | ZNF709 C198(C394)(C450)(C506)(C534)(C562) | -0.11 | 0.264 | 0.0412 | 0.173
43 | ZMAT5 C57 (UniProt Q9UDW3) | -0.0143 | 0.567 | -0.715 | 0.21
44 | ZNF518A C516 | 0.23 | -0.0902 | -0.47 | -0.048
45 | ZDHHC16 C157 (UniProt Q969W1) | -0.119 | -0.274 | -0.205 | 0.177
46 | ZNF598 C426 (UniProt Q86UK7) | -0.321 | 0.0118 | -0.693 | -0.319
47 | ZNF317 C127 | 0.126 | 0.284 | -0.142 | -0.00881
48 | ZNHIT6 C211 (UniProt Q9NWK9) | 0.0113 | -0.06 | 0.0687 | -0.143
49 | ZCCHC8 C157 (UniProt Q6NZY4) | -0.119 | -0.193 | 0.0307 | -0.268
50 | ZSWIM8 C979 (UniProt A7E2V4) | 0.169 | -0.0912 | -0.29 | -0.185
51 | ZNF131 C9 (UniProt P52739) | 0.319 | 0.318 | -0.129 | 0.276
52 | ZNF407 C1230 (UniProt Q9C0G0) | -0.3 | 0.706 | -0.185 | -0.229
53 | ZC3HAV1L C202 (UniProt Q96H79) | -0.219 | 0.0969 | -0.0806 | 0.00219
54 | ZNF709 C431(C571) | 0.205 | 0.497 | 0.0791 | 0.404
55 | ZNF761 C24 | -0.203 | -0.0346 | 0.0103 | 0.106
56 | ZDHHC13 C51 (UniProt Q8IUH4) | -0.139 | 0.144 | -0.0233 | 0.385
57 | ZGPAT C377 (UniProt Q8N5A5) | 0.275 | -0.0583 | -0.313 | 0.125
